Laboratory results reported in the supplement of paper PMC12889115.
The other results are listed elsewhere or left out. Values are raw readings; no control value is given beside them.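 In the initial screen, polymyxin B was used at a concentration that permeabilizes Salmonella's outer membrane but not its inner membrane. Maximum growth was set by DMSO wells with or without polymyxin B. Since plates varied, data were ranked per plate, and compounds giving the lowest OD600 advanced as hits.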

System: Salmonella enterica serovar Typhimurium SL1344
Test: bacterial growth OD600 after 18 h with compound and polymyxin B; higher = more bacterial growth (less inhibition)
Details: 50 µM, Mueller-Hinton broth

Row | Structure (SMILES) | bacterial growth OD600 (polymyxin B 1 µg/mL) | bacterial growth OD600 (polymyxin B 0.75 µg/mL)
1 | CCn1ccnc1CN(C)Cc1cnc(S(=O)(=O)C(C)C)n1CCC(C)C | 1.08 | 
2 | CC(C)CN1CCC(C2CCN(S(C)(=O)=O)C2)CC1 (stereo not given) |  | 0.887
3 | c1cc(CCCNc2ccc(-c3nc(C4CC4)no3)cn2)ccn1 | 1.05 | 
4 | Cc1cccc(CNCC2(O)CCCN(Cc3cccc(F)c3F)C2=O)n1 (stereo not given) |  | 0.982
5 | CCN1CCC(N2CCC(n3nccc3NC(=O)c3ccc4c(c3)OCO4)CC2)CC1 |  | 0.814
6 | C=CCN1CC(C(=O)NCc2nc(-c3ccc(NC(=O)c4ccc(COC)o4)cc3)oc2C)CC1=O (stereo not given) |  | 0.76
7 | COc1cccc2c1OCCCN(C(=O)C1CCN(c3nc(C)c4ccccc4n3)CC1)C2 |  | 0.823
8 | CCN(CC)C1CCN(C(=O)c2cn(C3CCCCC3)cc(C(=O)NC(C)(C)C)c2=O)C1 (stereo not given) |  | 0.962
9 | CC(C(=O)N1CCC(N2CCC(C(=O)N3CCCC3)CC2)CC1)n1cnc2ccccc21 (stereo not given) | 1.13 | 
10 | COc1ccccc1C1(CC(=O)N2CCCC(c3ccccc3C)C2)CC(=O)N(C)C1=O (stereo not given) |  | 0.054
11 | CCOC(=O)N1CCN(C2CCCN(Cc3cccn3-c3ncccn3)C2)CC1 (stereo not given) | 0.856 | 
12 | OCCC1CCN(c2nncc(-c3cccc(F)c3)n2)CC1 | 1.04 | 
13 | O=C(CN1C(=O)CSC1=O)N1CCOc2ccc(CN3CCN(c4ccc(F)cc4)CC3)cc2C1 |  | 0.809
14 | COCCN1C(=O)CC(CC(=O)N2CCCC(C(=O)Cc3ccccc3)C2)(c2ccccc2F)C1=O (stereo not given) |  | 0.805
15 | Cc1cccc(CCNC(=O)Cn2nnnc2CN2C[C@@H](C)O[C@@H](C)C2)n1 |  | 0.978
16 | Cc1cnc(SCc2ccccn2)nc1C1CCCN(CCCc2ccccc2)C1 (stereo not given) |  | 0.993
17 | COc1ccccc1CNc1ncnc2sc(C(=O)N3CCCC3)c(C)c12 |  | 0.799
18 | Cc1cccc(C2c3[nH]c4ccccc4c3CCN2C(=O)c2ocnc2C)n1 (stereo not given) | 0.719 | 
19 | CC(C)C(=O)N1CCCC1C(=O)Nc1ccc(-c2nc3ccccc3o2)cc1 (stereo not given) |  | 0.963
20 | COc1ccc(CC2(CCC(=O)NCCc3nc(-c4ccccc4)cs3)CCC(=O)N2)c(F)c1 (stereo not given) |  | 0.758
21 | CCn1ncc(CN2CCc3[nH]nc(-c4cccc(F)c4)c3C2)c1C |  | 0.811
22 | Cc1c(C(=O)NC2CC2)sc2ncnc(N3CCCCCCC3)c12 |  | 0.032
23 | CCO[C@H]1[C@H](NC(=O)c2cccnc2)c2ccccc2C12CCN(C(=O)CC1=CCCCC1)CC2 |  | 0.598
24 | CC(=O)N1CCC(N2CCCC(CCc3cccc(F)c3)C2)CC1 (stereo not given) |  | 0.835
25 | COC(C(=O)Nc1ccnn1C1CCN(C(=O)c2sccc2C)CC1)c1ccccc1 (stereo not given) | 0.89 | 
26 | Cc1c(C(C)NCc2ccc(F)cc2F)cnn1-c1cccc(F)c1 (stereo not given) |  | 0.776
27 | COc1cc(OC)c(OC)cc1CN1CCC(CO)(CCCc2ccccc2)CC1 | 0.882 | 
28 | O=C(c1ccc(NC2CCC2)nc1)N1CCC(CCn2cccn2)CC1 | 0.962 | 
29 | CC1CCN(C(=O)CCC2(Cc3ccc4ccccc4c3)CCC(=O)N2)CC1 (stereo not given) |  | 0.847
30 | Cc1ccc2oc(C(=O)N3CCC(O)(c4ccccc4)CC3)c(C)c2c1 | 0.856 | 

Whole records from above.
COC(C(=O)Nc1ccnn1C1CCN(C(=O)c2sccc2C)CC1)c1ccccc1 (stereo not given) is listed with bacterial growth OD600 (polymyxin B 1 µg/mL): 0.89
O=C(CN1C(=O)CSC1=O)N1CCOc2ccc(CN3CCN(c4ccc(F)cc4)CC3)cc2C1 is listed with bacterial growth OD600 (polymyxin B 0.75 µg/mL): 0.809
